Values joined by “and” are separate entries in the source; they are usually repeats but may differ in a detail not shown here. Identical values can stand only once. Screen size: about 300,000 compounds; about 5,400 (1.8%) were called active. The shares of active, inactive and inconclusive entries below differ from those in the screen. The call rests on the fitted dose curve; tested in HEK293 cells. Potencies of inconclusive entries are doubtful fits and often do not repeat.
Test: qHTS for inhibitors of binding or entry into cells for Marburg Virus
Details: Marburg virus pseudotyped entry inhibition, cell reporter; activity change, negative = inhibition: at 37.8 µM (top of the series) unless noted
On the % scale 0 is the no-effect control and ±100 the full control effect; potency means the concentration at half of the fitted maximal effect.

Row | Structure (SMILES) | Potency | activity change, negative = inhibition
1 | OCC1CCCN(c2nc(CN3CCCCC3)nc3scc(-c4ccccc4)c23)C1 (stereo unspecified) | inconclusive: 14.6 µM [inhibitor, partial curve, poor fit] | 
2 | Cc1c(C#N)c(O)n(CCO)c(=O)c1N=Nc1ccc(S(N)(=O)=O)cc1 |  | inactive: -3.37% [at 46.1 µM]
3 | COc1cccc(NC(=O)Nc2ccc3snnc3c2)c1 | inconclusive: 10 µM [activator, partial curve, poor fit] | 
4 | COc1ccc(C(=O)N[C@H](C(=O)NCCCn2nc(C)cc2C)C(C)C)cc1 |  | inactive: 15.1%
5 | COc1ccc(NS(=O)(=O)c2cccc(NC(=O)C34CCC(CC3)C4)c2)cc1 | inconclusive: 11.2 µM [inhibitor, partial curve] | 
6 | O=C(CCCC(=O)N1CCCC1)N1CCCC1 | inconclusive: 35.5 µM [activator, single point] | 
7 | Cc1cccc(C(=O)N2CCN(c3ccccn3)CC2)c1 |  | inactive: -15.7%
8 | COc1ccc(Cl)cc1NC(=O)CN(C)CC(=O)Nc1ccccc1C(F)(F)F |  | inactive: -26.7% [at 46.1 µM]
9 | Cc1ccc(S(=O)(=O)Nc2cc(-c3nn(C)c(=O)c4ccccc34)ccc2N2CCOCC2)cc1 | inconclusive: 5.8 µM [inhibitor, single point] | 
10 | COc1ccc2[nH]cc(CCNC(=O)C3CC(=O)N(c4ccc(Cl)cc4)C3)c2c1 (stereo unspecified) | inconclusive: 3.55 µM [inhibitor, partial curve] | 
11 | CC1CCC(C(=O)NC(C(=O)N2CCc3ccccc3C2)C(C)C)CC1 (stereo unspecified) | inconclusive: 0.184 µM [inhibitor, full curve, poor fit] | 
12 | CCC(=O)N1CCc2cc(S(=O)(=O)NC(Cc3ccccc3)C(=O)NCc3ccccc3OC)ccc21 (stereo unspecified) |  | inactive: -1.1% [at 46.1 µM]
13 | COc1cc(C2=NOC(C(=O)Nc3ccc(C)cc3)C2)cc(OC)c1OC (stereo unspecified) | inconclusive: 5.17 µM [inhibitor, full curve] | 
14 | O=C(Cc1nc(=O)c2ccccc2s1)Nc1ccccc1 | inconclusive: 0.146 µM [activator, full curve, poor fit] | 
15 | CCOc1ccccc1N(CC(=O)N/N=C/c1cc(Br)ccc1OC)S(C)(=O)=O | inconclusive: 5.8 µM [inhibitor, partial curve, poor fit] | 
16 | COC(=O)C(C)n1cnc2c(cnn2-c2ccc(Cl)cc2)c1=O (stereo unspecified) |  | inactive: -5.11%
17 | O=C(Nc1cccc([N+](=O)[O-])c1)c1ccc2nsnc2c1 |  | inactive: 20.6% [at 46.1 µM]
18 | COc1ccccc1N1CCN(C2=NS(=O)(=O)c3ccccc32)CC1 | inconclusive: 35.5 µM [inhibitor, single point] | 
19 | Cc1cccc2c1CC(C)(C)N=C2C1=C(O)CC(C)(C)CC1=O | inconclusive: 0.355 µM [inhibitor, partial curve, poor fit] | 
20 | COc1ccc(-n2c(CN3CCN(c4ccccc4)CC3)nc3ccc([N+](=O)[O-])cc3c2=O)c(OC)c1 |  | inactive: -15.2% [at 46.1 µM]
21 | O=C(CSc1ccc(-c2cccnc2)nn1)Nc1ccccc1 |  | inactive: -9.41%
22 | Nc1c(Cl)ncnc1N1CCOCC1 | inconclusive: 0.0052 µM [inhibitor, full curve, poor fit] | 

Row | Structure (SMILES) | Potency | activity change, negative = inhibition
23 | CC(C)CCNC(=O)c1cc(-c2ccc(Br)s2)nc2ccccc12 |  | inactive: 11.9% [at 46.1 µM]
24 | CN(CC(=O)NCCc1ccc(F)cc1)Cc1cccs1 | inconclusive: 15.8 µM [activator, single point] | 
25 | CCCCn1c(N)c(N(CCOC)C(=O)C(C)N2C(=O)c3ccccc3C2=O)c(=O)[nH]c1=O (stereo unspecified) | inconclusive: 1.58 µM [inhibitor, partial curve, poor fit] | 
26 | CNC(=S)N/N=C/c1cn(Cc2ccc(F)cc2)c2ccccc12 | inconclusive: 10 µM [inhibitor, partial curve, poor fit] | 
27 | Cc1noc(C)c1CSCC(=O)Nc1cc(S(=O)(=O)N2CCCCC2)ccc1OC(C)C |  | inactive: -19.7% [at 46.1 µM]
28 | COc1ccccc1/C=C/C=N/NC(=O)c1ccccn1 | inconclusive: 0.562 µM [activator, full curve, poor fit] | 
29 | Cc1c(C(=O)NCc2cccc(F)c2)oc2c1-c1[nH]ncc1CC2 |  | inactive: 5.18% [at 46.1 µM]
30 | c1ccc(COc2ccc(CNCc3cccnc3)cc2)cc1 | inconclusive: 3.16 µM [activator, single point] | 
31 | CCCCNC(=O)CCn1nc(-c2ccc(Cl)cc2)c2ccccc2c1=O | inconclusive: 35.5 µM [inhibitor, single point] and inconclusive: 1.26 µM [inhibitor, single point] | 
32 | COc1cc(CCC(=O)NNC(=O)c2cccc(Cl)c2)cc(OC)c1OC |  | inactive: 7.82% [at 46.1 µM]
33 | O=C(NC(=S)N(CCCCO)C1CCCCC1)c1sc2ccccc2c1Cl | active: 13 µM | 
34 | COc1ccccc1NS(=O)(=O)c1cc(NC(=S)Nc2cc(C)cc(C)c2)ccc1Cl | inconclusive: 10 µM [inhibitor, partial curve, poor fit] | 
35 | CC(NC(=O)c1ccc(CS(=O)(=O)c2cccc(C(F)(F)F)c2)o1)c1ccc2c(c1)OCCO2 (stereo unspecified) | inconclusive: 1 µM [inhibitor, full curve, poor fit] | 
36 | CCCOc1cccc(-c2cc(C(=O)NN)c3ccccc3n2)c1 | inconclusive: 25.9 µM [inhibitor, single point] | 
37 | CC(=O)c1ccc(CCCc2ccc(C(C)=O)cc2)cc1 | inconclusive: 15.8 µM [inhibitor, single point] | 
38 | Fc1ccc(C(c2nnnn2Cc2cccs2)N2CCN(c3ccccc3)CC2)cc1 (stereo unspecified) | inconclusive: 11.2 µM [inhibitor, single point] | 
39 | CCN(CC)C(=O)c1ccc2c(c1)N(Cc1ccccc1F)C(=O)c1ccccc1S2=O (stereo unspecified) | inconclusive: 6.31 µM [activator, partial curve, poor fit] | 
40 | CCN(CC)S(=O)(=O)c1ccc(Cc2ncc(C(F)(F)F)cc2Cl)s1 | inconclusive: 25.1 µM [inhibitor, partial curve, poor fit] | 
41 | O=[n+]1c2c(n([O-])c3cc(F)c(N4CCCC4)cc31)CCCC2 |  | inactive: 25.3%
42 | COc1ccc(-c2noc(CCCC(=O)NCc3ccco3)n2)cc1OC | inconclusive: 35.5 µM [inhibitor, single point] | 
43 | COc1cccc(C(=O)OCc2ccccc2C#N)c1O | inconclusive: 31.6 µM [activator, single point] | 
44 | N#Cc1ccccc1COC(=O)c1cccc(S(=O)(=O)N2CCCC2)c1 | inconclusive: 35.5 µM [inhibitor, single point] | 

Row | Structure (SMILES) | Potency | activity change, negative = inhibition
45 | Cc1cccc(/C=N/n2c(-c3ccncc3)n[nH]c2=S)c1 | inconclusive: 0.116 µM [inhibitor, full curve] | 
46 | Cc1ccc(C)c(N(C)S(=O)(=O)c2ccc3[nH]cc(C(=O)NCCN4CCOCC4)c(=O)c3c2)c1 | inconclusive: 0.82 µM [inhibitor, full curve, poor fit] | 
47 | COc1ccc(NC2CS(=O)(=O)CC2NCc2ccccc2)cc1 (stereo unspecified) | inconclusive: 3.55 µM [activator, full curve, poor fit] | 
48 | CCCCNC(=O)[C@@H]1CSC2c3ccccc3C(=O)N21 (stereo partly specified) | inconclusive: 5.62 µM [activator, single point] | 
49 | Cc1ccc(CNC(=O)CSc2ccc(-c3ccccn3)nn2)cc1 | inconclusive: 35.5 µM [inhibitor, single point] | 
50 | CCCc1cc(=O)oc2cc(OCC(=O)NCCCn3ccnc3)ccc12 |  | inactive: 11.9% [at 46.1 µM]
51 | NS(=O)(=O)c1ccc(NC(=S)Nc2nn(Cc3ccc(Cl)cc3Cl)cc2Cl)cc1 | inconclusive: 0.562 µM [inhibitor, full curve, poor fit] | 
52 | CN(C)CCNCc1ccccc1OC1CCCC1 | inconclusive: 18.3 µM [inhibitor, partial curve] | 
53 | CCc1ccc2oc(-c3cccc(NC(=O)COc4ccccc4Cl)c3)nc2c1 | inconclusive: 15.8 µM [activator, single point] | 
54 | CCCCC(=O)Nc1ccc(C)c(S(=O)(=O)N2CCCCCC2)c1 | inconclusive: 8.91 µM [inhibitor, partial curve] | 
55 | CCOc1ccc2nc(N3CCCC(C(=O)Nc4ccc(CC)cc4)C3)sc2c1 (stereo unspecified) | inconclusive: 5.62 µM [activator, single point] | 
56 | Cc1ccc(-n2nnnc2Sc2nc([N+](=O)[O-])nn2C)cc1C |  | inactive: -20.5%
57 | COc1ccc2c(c1)O[C@@H](c1ccc3c(c1)OCO3)[C@H](OC(=O)Nc1cc(OC)c(OC)c(OC)c1)C2=O | inactive and inconclusive: 944 nM [inhibitor, partial curve, poor fit] | 
58 | COc1ccccc1OCC(=O)N/N=C1\CCCCc2ccccc21 |  | inactive: -6.36%
59 | O=C(c1ccc(F)cc1)N1CCN(c2cnn(-c3ccccc3)c(=O)c2Cl)CC1 |  | inactive: 1.28% [at 46.1 µM]
60 | CC1Sc2ccc(S(=O)(=O)CCC(=O)N3CCN(c4ccccc4F)CC3)cc2NC1=O (stereo unspecified) | inconclusive: 35.5 µM [inhibitor, partial curve, poor fit] | 
61 | COCCNS(=O)(=O)c1ccc2c(c1)Cc1cc(S(=O)(=O)NCCOC)ccc1-2 | inconclusive: 2 µM [inhibitor, partial curve, poor fit] | 
62 | Cc1c(C(=O)NC(=S)Nc2ccccc2N2CCCC2)cccc1[N+](=O)[O-] |  | inactive: -31.8%
63 | Cc1sc2nc(SCC(=O)Nc3c(C)n(C)n(-c4ccccc4)c3=O)n(C)c(=O)c2c1C | inactive | 
64 | CN(CC(O)Cn1cnc2c1c(=O)n(C)c(=O)n2C)c1ccccc1 (stereo unspecified) | inconclusive: 12.6 µM [inhibitor, single point] | 
65 | COC(=O)c1cnc(Oc2ccc(NC(=O)NC(=O)c3c(OC)cccc3OC)cc2)cc1C(F)(F)F | active: 1.58 µM | 
66 | CCC1CCCCN1C(=O)COC(=O)c1cccs1 (stereo unspecified) | inconclusive: 35.5 µM [activator, single point] | 
